Record: PubChem BioAssay AID1224829 (NIAID, 2016)
This is one part, drawn at random, of about 3,800 reagents tested. 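Calls cover raised and lowered translocation; gene median uses one vendor's three siRNAs; qiagen siRNAs acted more weakly than ambion siRNAs.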 Unmarked entries are inactive.

Aim: 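Follow-up of TLR4-NF-kappaB regulators using six separate siRNAs for each gene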 (follow-up of hits)
System: mouse RAW264.7 G9 macrophage reporter cells
Reagents: single siRNA against mouse genes, 100 nM
Timing: 2 days of siRNA knock-down, then 40 min of LPS before fixing
Challenge: LPS (Salmonella minnesota R595) at 10 ng/ml
Detection: 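Imaging of GFP-p65 after 40 min of LPS; nuclear over perinuclear ring intensity ratio, scaled to plate median and non-targeting control wells, given as z-score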
Scale: p65 translocation z-score and gene median z-score, per vendor: higher = more nuclear NF-kappaB p65 after LPS
Hit rule: 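Active means the replicate-mean z-score lies beyond plus or minus 2, in either direction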
Meaning of the calls: active = changed p65 translocation (either direction); inactive = no clear change

gene	PubChem SID	siRNA vendor or control pool	p65 translocation z-score, replicate mean	p65 translocation z-score, replicate 1	p65 translocation z-score, replicate 2	gene median z-score, per vendor
Ido1	SID315484377	ambion single siRNA	-5.25 (active)	-7.42	-3.08	-4.1
Ido1	SID315484378	ambion single siRNA	-1.28	1.45	-4.01	-4.1
Ido1	SID315484379	ambion single siRNA	-6.49 (active)	-8.8	-4.19	-4.1
Ido1	SID315484380	qiagen single siRNA	3.57 (active)	1.76	5.39	1.67
Ido1	SID315484381	qiagen single siRNA	1.57	1.57	1.56	1.67
Ido1	SID315484382	qiagen single siRNA	0.601	-1.18	2.38	1.67
Pdcl3	SID315486570	ambion single siRNA	1.58	2.5	0.652	0.878
Pdcl3	SID315486571	ambion single siRNA	-0.0683	-1.24	1.1	0.878
Pdcl3	SID315486572	ambion single siRNA				0.878
Pdcl3	SID315486573	qiagen single siRNA	0.419	0.483	0.355	0.531
Pdcl3	SID315486574	qiagen single siRNA	1.21	0.395	2.02	0.531
Pdcl3	SID315486575	qiagen single siRNA	1.34	0.578	2.11	0.531
Ctps2	SID315485913	ambion single siRNA	-4.15 (active)	-3.74	-4.56	-3.74
Ctps2	SID315485914	ambion single siRNA	1.59	1.1	2.07	-3.74
Ctps2	SID315485915	ambion single siRNA	-3.83 (active)	-3.83		-3.74
Ctps2	SID315485916	qiagen single siRNA	0.974	-1.61	3.56	0.44
Ctps2	SID315485917	qiagen single siRNA	-0.438	-0.427	-0.45	0.44
Ctps2	SID315485918	qiagen single siRNA	2.12 (active)	1.31	2.93	0.44
Ankmy2	SID315488178	ambion single siRNA	-1.96	-2.28	-1.64	-3.68
Ankmy2	SID315488179	ambion single siRNA	-4.78 (active)	-4.99	-4.57	-3.68
Ankmy2	SID315488180	ambion single siRNA	-3.68 (active)	-3.68		-3.68
Ankmy2	SID315488181	qiagen single siRNA	1.85	0.926	2.77	1.47
Ankmy2	SID315488182	qiagen single siRNA	2.75 (active)	2	3.5	1.47
Ankmy2	SID315488183	qiagen single siRNA	-2.48 (active)	-2.32	-2.64	1.47
Fam110a	SID315486759	ambion single siRNA	0.0934	-0.968	1.16	-1.33
Fam110a	SID315486760	ambion single siRNA	-1.32	-0.94	-1.7	-1.33
Fam110a	SID315486761	ambion single siRNA	-2.37 (active)	-1.69	-3.05	-1.33
Fam110a	SID315486762	qiagen single siRNA	2.06 (active)	0.431	3.69	2.59
Fam110a	SID315486763	qiagen single siRNA	6.07 (active)	6.07		2.59
Fam110a	SID315486764	qiagen single siRNA	1.49	1.49		2.59
Ldhd	SID315485631	ambion single siRNA	0.208	0.428	-0.0118	-2.2
Ldhd	SID315485632	ambion single siRNA	-5.15 (active)	-5.27	-5.03	-2.2
Ldhd	SID315485633	ambion single siRNA	-2.2 (active)	-2.74	-1.66	-2.2
Ldhd	SID315485634	qiagen single siRNA	3.86 (active)	3.65	4.06	2.98
Ldhd	SID315485635	qiagen single siRNA	3 (active)	2.3	3.69	2.98
Ldhd	SID315485636	qiagen single siRNA	-0.485	-0.932	-0.0393	2.98

7 entries from above, arranged by “p65 translocation z-score, replicate 1”, low to high.
gene	PubChem SID	siRNA vendor or control pool	p65 translocation z-score, replicate mean	p65 translocation z-score, replicate 1	p65 translocation z-score, replicate 2	gene median z-score, per vendor
Ankmy2	SID315488179	ambion single siRNA	-4.78 (active)	-4.99	-4.57	-3.68
Ankmy2	SID315488180	ambion single siRNA	-3.68 (active)	-3.68		-3.68
Ankmy2	SID315488178	ambion single siRNA	-1.96	-2.28	-1.64	-3.68
Ctps2	SID315485916	qiagen single siRNA	0.974	-1.61	3.56	0.44
Ctps2	SID315485917	qiagen single siRNA	-0.438	-0.427	-0.45	0.44
Ankmy2	SID315488181	qiagen single siRNA	1.85	0.926	2.77	1.47
Ctps2	SID315485918	qiagen single siRNA	2.12 (active)	1.31	2.93	0.44

The listing continues:
gene	PubChem SID	siRNA vendor or control pool	p65 translocation z-score, replicate mean	p65 translocation z-score, replicate 1	p65 translocation z-score, replicate 2	gene median z-score, per vendor
Dnajb4	SID315486432	ambion single siRNA	-0.503	-0.503		-0.503
Dnajb4	SID315486433	ambion single siRNA	-4.76 (active)	-4.68	-4.84	-0.503
Dnajb4	SID315486434	ambion single siRNA	2.77 (active)	3.91	1.63	-0.503
Dnajb4	SID315486435	qiagen single siRNA	1.64	0.514	2.76	2.48
Dnajb4	SID315486436	qiagen single siRNA	2.41 (active)	1.62	3.2	2.48
Dnajb4	SID315486437	qiagen single siRNA	2.93 (active)	2.21	3.65	2.48
Gdi2	SID315484197	ambion single siRNA	-0.96	-1.04	-0.88	-0.96
Gdi2	SID315484198	ambion single siRNA	0.538	-1.28	2.36	-0.96
Gdi2	SID315484199	ambion single siRNA	-1.06	-0.253	-1.87	-0.96
Gdi2	SID315484200	qiagen single siRNA	-4.86 (active)	-3.78	-5.94	-5.94
Gdi2	SID315484201	qiagen single siRNA	-6.58 (active)	-6.58		-5.94
Gdi2	SID315484202	qiagen single siRNA	-5.65 (active)	-4.79	-6.51	-5.94
Paox	SID315488088	ambion single siRNA	2.54 (active)	2.49	2.6	-5.09
Paox	SID315488089	ambion single siRNA	-7.59 (active)	-7.59		-5.09
Paox	SID315488090	ambion single siRNA	-5.52 (active)	-5.95	-5.09	-5.09
Paox	SID315488091	qiagen single siRNA	0.415	1.13	-0.301	-0.306
Paox	SID315488092	qiagen single siRNA	-1.12	-1.93	-0.311	-0.306
Paox	SID315488093	qiagen single siRNA	-0.279	-0.639	0.0803	-0.306
